Results on two compounds are retold here after patent US10285966B2, “10-hydroxy-cis-12-octadecenoic acid alkyl ester and use thereof” (NITTO PHARMACEUTICAL INDUSTRIES, LTD., priority 2015, dated 2019).

This data set can be described thus: Sensory evaluation of flavor (taste test) by 10 panelists. The settings on record: for total evaluation / Five tastes: bitter taste / Five tastes: saltiness / Five tastes: sour taste / Five tastes: sweetness / Five tastes: umami taste / acridity / oil odor: 5 mg sample ingested, average score of 10 panelists; for total evaluation: delicious (5 points) - brackish (1 point); for Five tastes: bitter taste / Five tastes: saltiness / Five tastes: sour taste / Five tastes: sweetness / Five tastes: umami taste: strong (5 points) - weak (1 point); for acridity / oil odor: weak (5 points) - strong (1 point). On the procedure: A sensory evaluation of the flavor of compound of Example 1, and HYA of Comparative Example was performed by 10 panelists (hereinafter to be referred to as taste test). The panelists ingested 5 mg of a sample (sample name was kept secret to the panelists during the test), evaluated five tastes (umami taste, bitter taste, sour taste, saltiness, sweetness) respectively for the acridity and oil odor, and made total evaluation.
Each evaluation was marked in the following 5 grades and an average score of the 10 panelists was calculated.
Five tastes (umami taste, bitter taste, sour taste, saltiness, sweetness): […]

The mark [1] stands for this setting: taste test, result as worded in text.

“Also recorded” adds a separate entry of the source.

Take `CCCCC/C=C\CC(O)CCCCCCCCC(=O)O` (stereo not drawn) [HYA, 10-hydroxy-cis-12-octadecenoic acid]: the total evaluation came to 1.5 points, the “Five tastes: bitter taste” value is 3.5 points, the “Five tastes: saltiness” value was 1.5 points and the “Five tastes: sour taste” value is 1.5 points. For the same compound, the “Five tastes: sweetness” value came to 1.0 points, the “Five tastes: umami taste” value was determined as 1.5 points, the acridity turned out to be 1.0 points and the oil odor came to 3.0 points. Moreover, under setting [1], the “acridity (in words)” value is listed as “strong acridity” and the “oil odor (in words)” value was “moderate oil odor”.

As to `CCCCC/C=C\CC(O)CCCCCCCCC(=O)OCC` (stereo not drawn) [Example 1, ethyl 10-hydroxy-cis-12-octadecenoate], the total evaluation is listed as 3.5 points, the “Five tastes: bitter taste” value came out at 2.5 points, the “Five tastes: saltiness” value amounted to 2.0 points and the “Five tastes: sour taste” value amounted to 1.5 points. The “Five tastes: sweetness” value amounted to 3.0 points, the “Five tastes: umami taste” value stood at 3.0 points, the acridity is 3.0 points and the oil odor is 3.5 points. Further, under setting [1], the “acridity (in words)” value was “remarkably reduced acridity; also recorded: no acridity”, the “oil odor (in words)” value is “somewhat reduced oil odor”, the “total evaluation (in words)” value is on record as “high” and the “umami taste (in words)” value was “strong umami taste”.
